Assay results reported in the supplement of paper PMC7858590.
± gives the standard deviation of the averaged measurements. The list shows a part of the results. Repeats in this data set agree poorly, so a single value says little.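 M-CSF-grown macrophages from blood monocytes pooled across four healthy donors, in an M1-like state, received compounds that had driven resting macrophages M2-like in a first screen. Each Z-score t-tests eccentricity of ~1000 cells per well against same-row DMSO wells. Compounds passing the +6 M2 cutoff, set by standard cytokine controls, count as reprogramming. M1 cutoff: −4.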 Residues, ends and D or L forms follow the SMILES beside them. *: point of attachment. Cbz = O=C(OCc1ccccc1)*

Tested on: human monocyte-derived macrophages (polarized)
Assay: cell shape (eccentricity) Z-score vs DMSO control; macrophage state: M1-polarized (IFNg + TNFa), cytokines removed before treatment; higher = more elongated, M2-like morphology
Conditions: 24 h

Row | SMILES | cell shape (Z-score) (5 µM) | cell shape (Z-score) (10 µM)
1 | C[C@@]1(C(=O)Nc2ccc(F)nc2)CCCN1c1nc(Nc2cc(C3CC3)n[nH]2)c2cccn2n1 | 2.23 ± 8.6 | -8.53 ± 7.7
2 | O=C(CCc1ccc(O)cc1)c1c(O)cc(O)cc1O | 4.34 ± 6.5 | -0.741 ± 5
3 | O=C(Cc1ccc(-c2ccc(OCCN3CCOCC3)cc2)cn1)NCc1ccccc1 | 0.209 ± 1.1 | -0.21 ± 3.2
4 | Nc1nc2ccc(OC(F)(F)F)cc2s1 | 2.97 ± 0.95 | -4.04 ± 2.1
5 | Cc1cc(Nc2nc(N[C@@H](C)c3ncc(F)cn3)ncc2Cl)[nH]n1 | -3.41 ± 6.6 | -13.4 ± 5
6 | O=c1ncccn1[C@@H]1O[C@H](CO)[C@@H](O)[C@H]1O | -7.9 ± 6.2 | -0.215 ± 3.3
7 | CC(C)C[C@@H](C=O)NC(=O)[C@H](CC(C)C)NC(=O)[C@H](CC(C)C)NC(=O)OCc1ccccc1 (Cbz-Leu-Leu-Leu-aldehyde) | -3.95 ± 3.8 | -4.6 ± 6.9
8 | N#Cc1ccc(COC[C@H]2O[C@@H](n3c(NCc4ccc(Cl)c(Cl)c4)nc4c(N)ncnc43)[C@H](O)[C@@H]2O)cc1 | 0.389 ± 5.9 | 0.665 ± 3.7
9 | CCCCCCN(CCCCCC)C(=O)Cc1c(-c2ccc(F)cc2)[nH]c2ccccc12 | 2.07 ± 1.3 | 0.252 ± 1.1
10 | Nc1nc(Nc2ccccc2)nc2c1ncn2C1OC(CO)C(O)C1O (stereo unspecified) | -1.81 ± 6.4 | -13.6 ± 9
11 | C[C@@H]1O[C@@H](Oc2cc(O)c3c(=O)c(O[C@@H]4O[C@@H](C)[C@H](O[C@@H]5O[C@@H](C)[C@H](O)[C@@H](O)[C@H]5O)[C@@H](O)[C@H]4O)c(-c4ccc(O)cc4)oc3c2)[C@H](O)[C@H](O)[C@H]1O | 1.13 ± 3.9 | -2.14 ± 0.8
12 | O=S(=O)(c1cccc2cnccc12)N1CCCNCC1 | 3.35 ± 5.1 | 0.727 ± 0.12
13 | Cc1c(NC(=O)c2cccnc2)c(=O)n(-c2ccccc2)n1C | 4.96 ± 11 | 2.8 ± 8

Complete entries, quoted from the list.
O=S(=O)(c1cccc2cnccc12)N1CCCNCC1 is listed as cell shape (Z-score) (5 µM): 3.35 ± 5.1; cell shape (Z-score) (10 µM): 0.727 ± 0.12
CCCCCCN(CCCCCC)C(=O)Cc1c(-c2ccc(F)cc2)[nH]c2ccccc12 is listed as cell shape (Z-score) (5 µM): 2.07 ± 1.3; cell shape (Z-score) (10 µM): 0.252 ± 1.1
